Test results: article doi:10.1101/275552
No constants are given. Whether binding was seen depends on the method and setting. Binding calls can cover weak binding; strength is not graded here. Where a sequence is shown, tags or fusion partners need not be part of it. For some assays here: Binding seen in cells or lysates may run through a third protein.

Assays:
[1] = target: OsIQD14-BD (yeast two-hybrid fusion) (rice (Oryza sativa, japonica variety Zhonghua11)); experiment: two-hybrid
[2] = target: IQD14-n/cYFP (OsIQD14 split-YFP fusion for BiFC) (rice (Oryza sativa, japonica variety Zhonghua11)); experiment: split reporter

Row | binding [1] | binding [2] | Binder
1 | binds |  | SPR2-AD (AtSPR2, SPIRAL2; yeast two-hybrid fusion) (protein, UniProt Q9T041 1-864) MSTPTTSGSAAKPTRPARSSSLATRSCSNSGSLTSFQAMVELKQKILTSISKLADRDTYQIAVEDLEKTIQSLTPETLPMFLNCLYDSCSDPKPAVKKECLHLLSYVCSLHCDSTAAHLTKIIAQIVKRLKDSDSGVRDACRDTIGALSGIYLKGKEEGTNTGSASLAVGLFVKPLFEAMGEQNKVVQSGASMCMARMVESAASPPVTSFQKLCPRICKLLSNSSFLAKASLLPVVSSLSQVGAIAPQSLESLLESIHDCLGSTDWVTRKAAAETLTALASHSSGLIKEKTDSTITVLETCRFDKIKPVRESVTEALQLWKKISGKYVDGASDDSKLSASEQLGSEKNGEKRSNLADLMKKEASDGSTLSPDSASKGKGCFPEKAVGLLKKKAPVLSDKDFNPEFFQRLERRQSVEVVVPRRCKNNDEEESGLDDLNAMGSSNRLKNTQADDKQVKGRFDGNGSQARTSGDDKAGVVNGKETPGHHAPVSNTDNQSEGSFTSNRGNWSAIQRQLLQLERQQTNLMNMLQEFIGGSHDSMVTLEGRVRGLERIVEDMARDLSISSGRRANLTAGFGKYNSFANYPTGKYNGRAPGERGSQTDGAMRGRMWNSDMADDWFIPPHAASRNGQAGPRRSPRSEQYENEHMGNGRRGWDNKASGTIRFGEGPSARSVWQASKDEATLEAIRVAGEDGAVPRPTRVAVAPEAEAMGDDDNEGQERDPIWVSWSNAMHSLRVGDIDAAYAEVLCAGDQHLVIKLMDKTGPSLDQMSNEIANEALNFISQFLLDHSLYDICLSWSQQLLELVLQDGADTFGVPMELKTEILYNLQDACSTMDPPEDWEGPAPEQLVVQLASVWEIDLQQFDK
2 |  | binds | SPR2-c/nYFP (AtSPR2 split-YFP fusion for BiFC) (protein, UniProt Q9T041 1-864) MSTPTTSGSAAKPTRPARSSSLATRSCSNSGSLTSFQAMVELKQKILTSISKLADRDTYQIAVEDLEKTIQSLTPETLPMFLNCLYDSCSDPKPAVKKECLHLLSYVCSLHCDSTAAHLTKIIAQIVKRLKDSDSGVRDACRDTIGALSGIYLKGKEEGTNTGSASLAVGLFVKPLFEAMGEQNKVVQSGASMCMARMVESAASPPVTSFQKLCPRICKLLSNSSFLAKASLLPVVSSLSQVGAIAPQSLESLLESIHDCLGSTDWVTRKAAAETLTALASHSSGLIKEKTDSTITVLETCRFDKIKPVRESVTEALQLWKKISGKYVDGASDDSKLSASEQLGSEKNGEKRSNLADLMKKEASDGSTLSPDSASKGKGCFPEKAVGLLKKKAPVLSDKDFNPEFFQRLERRQSVEVVVPRRCKNNDEEESGLDDLNAMGSSNRLKNTQADDKQVKGRFDGNGSQARTSGDDKAGVVNGKETPGHHAPVSNTDNQSEGSFTSNRGNWSAIQRQLLQLERQQTNLMNMLQEFIGGSHDSMVTLEGRVRGLERIVEDMARDLSISSGRRANLTAGFGKYNSFANYPTGKYNGRAPGERGSQTDGAMRGRMWNSDMADDWFIPPHAASRNGQAGPRRSPRSEQYENEHMGNGRRGWDNKASGTIRFGEGPSARSVWQASKDEATLEAIRVAGEDGAVPRPTRVAVAPEAEAMGDDDNEGQERDPIWVSWSNAMHSLRVGDIDAAYAEVLCAGDQHLVIKLMDKTGPSLDQMSNEIANEALNFISQFLLDHSLYDICLSWSQQLLELVLQDGADTFGVPMELKTEILYNLQDACSTMDPPEDWEGPAPEQLVVQLASVWEIDLQQFDK
